Results published in PubChem BioAssay AID504648 (National Center for Advancing Translational Sciences (NCATS), 2011).
About 610 (0.16%) of roughly 390,000 compounds were called active. The shares of active, inactive and inconclusive entries below differ from those in the screen. The call rests on the fitted dose curve; in most records, active means well fitted inhibition curve with a large enough effect; inconclusive means small, poorly fitted or top-dose-only effect, or effect the other way, or another doubt; inactive means no such curve, though single readings can be large or run the other way. Where the call is inconclusive, the potency comes from a doubtful curve fit.
On the % scale 0 is the no-effect control and ±100 the full control effect; potency means the concentration at half of the fitted maximal effect.

Assay: Nrf2 qHTS screen for inhibitors: counterscreen for cytotoxicity
Details: A549 ARE-Fluc cells, CellTiter-Fluor viability, 18-24 h; activity change, negative = cytotoxicity: at 46 µM (top of the series)
How it was run: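 A549 ARE-Fluc cells in 5% FBS OPTI-MEM, 5000 cells/well, rested 2 h then exposed to compounds in concentration-response for 18-24 h at 37 °C. Viability by CellTiter-Fluor fluorescence (Ex 405/Em 525) after 30 min; luciferase luminescence (BugLite, 15 min, RT) read afterwards.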
With Cc1nn(-c2ccc([N+](=O)[O-])cc2)c2c1C(c1ccc(OC(F)F)cc1)N1C(=N2)C(=O)Nc2ccccc21 (configuration not stated) the Potency was inconclusive: 14.6 µM [falling, partial curve, poor fit]. In the case of CCCCNC(=O)C1c2ccccc2C(=O)N(c2ccc(OC)cc2)C1c1ccc(OC)cc1 (configuration not stated), the Potency is reported as inconclusive: 10.3 µM [falling, single point]. In the case of C(=C\c1ccco1)/C1=NN(c2ccccc2)C(c2ccco2)C1 (configuration not stated), the Potency is reported as inconclusive: 13 µM [activator, partial curve]. In the case of Cc1nn(CC(=O)Nc2ccc3c(c2)oc2ccccc23)c(=O)c2ccccc12, the Potency is reported as inconclusive: 25.9 µM [falling, partial curve, poor fit]. In the case of CN(C)S(=O)(=O)c1cccc(N=c2scc(-c3ccc4c(c3)NC(=O)CO4)n2CC2CCCO2)c1 (configuration not stated), the “activity change, negative = cytotoxicity” value is reported as inactive: -3.04%. With O=C(O)c1cccnc1SC1CC(=O)N(CCc2ccccc2)C1=O (configuration not stated) the Potency was inconclusive: 18.4 µM [activator, partial curve, poor fit]. For Cc1ccccc1-c1nc(-c2cccnc2)no1, the “activity change, negative = cytotoxicity” value was inactive: -4.87%. In the case of COc1cc(/C=N/NC(=O)c2ccncc2)cc2c1OCO2, the “activity change, negative = cytotoxicity” value is reported as inactive: -5.19%. For Cc1ccc(C(=O)Nc2sc3c(c2C(=O)O)CCC(C)C3)o1 (configuration not stated), the “activity change, negative = cytotoxicity” value was inactive: -21.6%. For COc1ccccc1/C=C/C(=O)OCC(=O)NCc1ccco1, the “activity change, negative = cytotoxicity” value was inactive: 0.378%. In the case of O=C(CCSc1ccc(Cl)c(Cl)c1)NC12CC3CC(CC(C3)C1)C2, the Potency is reported as inconclusive: 4.11 µM [falling, single point]. For CCOC(=O)C1(Cc2cccc(OC)c2)CCN(Cc2cccn2-c2ccccn2)CC1, the Potency was inconclusive: 29.1 µM [falling, single point]. In the case of CCOC(=O)c1sc(N2C(=O)C(O)=C(C(=O)c3ccco3)C2c2cccc([N+](=O)[O-])c2)nc1C (configuration not stated), the Potency is reported as inconclusive: 32.6 µM [falling, partial curve, poor fit]. For CC1=NN(C(=O)c2ccncc2)C(=O)C1N=Nc1ccc2ccccc2c1 (configuration not stated), the Potency was inconclusive: 20.6 µM [falling, partial curve, poor fit]. In the case of Cc1cc(C)n(-c2ccc(C(=O)Nc3ccc(C)c(S(=O)(=O)N(C)C)c3)cc2)n1, the Potency is reported as inconclusive: 18.4 µM [falling, partial curve, poor fit]. For CCc1ccccc1NC(=O)C(=O)NCC(c1cccnc1)N1CCN(c2ccccc2F)CC1 (configuration not stated), the “activity change, negative = cytotoxicity” value was inactive: -0.152%. For COC(=O)c1nnn(-c2cccc(C)c2)c1C(=O)OC, the “activity change, negative = cytotoxicity” value was inactive: 1.05%. In the case of S=c1[nH]ccn1-c1cccc(Cl)c1, the “activity change, negative = cytotoxicity” value is reported as inactive: 8.23%. In the case of COc1cc(NC(=O)CN2C(=O)COc3ccc(S(=O)(=O)N4CCCCC4)cc32)cc(OC)c1, the Potency is reported as inconclusive: 2.06 µM [falling, partial curve, poor fit]. With CC(=O)N(Cc1ccc(F)cc1)C1=C(NCCc2ccccc2)C(=O)c2ccccc2C1=O the Potency was active: 23.1 µM. In the case of Cc1ccc(C)c(CN2C(=O)c3ccccc3S(=O)(=O)c3ccc(C(=O)N4CCN(c5ccccn5)CC4)cc32)c1, the “activity change, negative = cytotoxicity” value is reported as inactive: 9.87%. For COc1ccc(C)cc1NC(=O)NCc1ccc2c(c1)CCN2C(=O)c1ccccc1, the Potency was inconclusive: 32.6 µM [falling, partial curve, poor fit]. In the case of O=C1c2cc(F)ccc2-n2c1nc1ccccc1c2=O, the Potency is reported as active: 11.6 µM. For Clc1ccc(CNc2ncnc3nc[nH]c23)cc1, the Potency was inconclusive: 23.1 µM [activator, partial curve, poor fit]. In the case of Cc1ccc(S(=O)(=O)N2C(=O)c3cccc4cccc2c34)cc1, the Potency is reported as inconclusive: 13 µM [falling, single point]. In the case of Cc1ccc(Cn2ccc(NC(=O)c3cc(-c4cccc(Cl)c4)on3)n2)cc1, the Potency is reported as inconclusive: 29.1 µM [falling, single point]. For C#CC(=O)N(c1ccc(OC)c(OC)c1)C(C(=O)NC1CCCC1)c1cccs1 (configuration not stated), the Potency was inconclusive: 23.1 µM [falling, single point]. In the case of CCOC(=O)C1(C)/C(=N/Nc2ccccc2Cl)C(=O)C(=O)N1c1ccccc1 (configuration not stated), the Potency is reported as inconclusive: 23.1 µM [activator, partial curve, poor fit]. For C[C@@H]1OC(Nc2ccc(N=Nc3ccccc3)cc2)[C@H](O)[C@H](O)[C@H]1O (some centres not stated), the Potency was inconclusive: 16.4 µM [falling, single point]. For Cn1c(C(=O)NCCCN2CCN(c3ccccc3F)CC2)cc2c(=O)[nH]c3ccccc3c21, the “activity change, negative = cytotoxicity” value was inactive: -5.39%. For CCOc1ccc(C(=O)NCC(c2ccc3c(c2)OCO3)N2CCN(c3ccccc3F)CC2)cc1 (configuration not stated), the “activity change, negative = cytotoxicity” value was inactive: -18.5%. For CCN(CC)c1ccc2cc(NC(=O)CCC(=O)O)c(=O)oc2c1, the Potency was inconclusive: 16.4 µM [activator, partial curve]. In the case of Cc1cn2c(=O)c(C(=O)N3CCN(c4ccccc4Cl)CC3)cnc2s1, the “activity change, negative = cytotoxicity” value is reported as inactive: -3.68%. With CC(C)CC(COCc1cccc(Cl)c1)N1CCN(C(=O)c2ccc(C(F)(F)F)cc2)CCC1=O (configuration not stated) the Potency was inconclusive: 32.6 µM [falling, partial curve, poor fit]. In the case of CCN(CC)CCNc1nc(-c2ccco2)c2c(c1C#N)CC(C)(C)OC2, the Potency is reported as inconclusive: 5.8 µM [activator, single point]. For Cc1cccn2c(=O)c3cc(C(=O)NCCN4CCOCC4)c(=N)n(Cc4ccc(F)cc4)c3nc12, the Potency was inconclusive: 13 µM [falling, partial curve]. In the case of O=[N+]([O-])c1ccc(NCCCN2CCOCC2)c([N+](=O)[O-])c1, the Potency is reported as inconclusive: 14.6 µM [falling, partial curve]. With CCOc1ccc(C(=O)c2cn(Cc3ccc(Cl)cc3)c3cc(OC)c(OC)cc3c2=O)cc1 the Potency was active: 14.6 µM. In the case of OCCCc1nc2n(n1)C(c1ccccc1Cl)C=C(c1cccs1)N2 (configuration not stated), the Potency is reported as inconclusive: 20.6 µM [activator, partial curve]. In the case of COc1cccc(CN2CCN(Cc3cccc(Oc4ccccc4)c3)CC2)c1OC, the Potency is reported as inconclusive: 25.9 µM [falling, partial curve, poor fit]. For c1ccc(-c2cn3nc(-c4ccccc4)c(-c4ccccc4)nc3n2)cc1, the Potency was inconclusive: 20.6 µM [activator, single point]. In the case of O=C(Cn1cnc2c(nnn2Cc2ccc(Cl)cc2)c1=O)NC1CCCC1, the Potency is reported as inconclusive: 0.411 µM [activator, full curve, poor fit].
